We go through five compounds from the supplement of paper PMC7238544.

The test system of assay [1] is hAMSC donor 1. The experiment in a line: Hoechst total cell count ratio vs vehicle control; higher = more cells (less toxicity).
For assay [2], the system named is hAMSC donor 2. Described as above.
The subject of assay [3] is hAMSC donor 2. As to the kind of experiment: transgenic luciferase activity (RLU/mg protein) fold change vs vehicle control (ratio); higher = more transgene expression. As to conditions: priming compound concentration 13 µM.
Assay [4] has as its system hAMSC donor 1. The experiment in a line: transfection efficiency (EGFP+ cells / Hoechst count) fold change vs vehicle control (ratio); higher = enhanced transfection.
The test system of assay [5] is hAMSC donor 2. The description is as above.
Assay [6] relates to hAMSC donor 1. The experiment in a line: transgenic luciferase activity (RLU/mg protein) fold change vs vehicle control (ratio); hAMSC are human adipose-derived mesenchymal stem cells given an EGFP-luciferase plasmid by lipofection; higher = more transgene expression.
[7] abbreviates: priming compound concentration 0.2 µM.
Where [8] appears, read: priming compound concentration 1.7 µM.
Setting [9] is: priming compound concentration 13 µM.

Counter-ions that a name gives are not always drawn. ± gives the standard deviation of the averaged measurements. The list shows a part of the results. The data scatter; read single values as rough.

Turning to `NC(=O)C[S+]([O-])C(c1ccccc1)c1ccccc1` (stereo not given) [Modafinil], the “Hoechst total cell count ratio” value in the assay with hAMSC donor 1 [1] (setting [7]) was 1.09 ± 0.13; in the assay on hAMSC donor 1 [1] (setting [8]), 1.16 ± 0.1; in the assay on hAMSC donor 1 [1] (setting [9]) it was 1.49 ± 0.34; with hAMSC donor 2 [2] (setting [7]), 1.16 ± 0.072; in the assay on hAMSC donor 2 [2] (setting [8]), 1.22 ± 0.15; with hAMSC donor 2 [2] (setting [9]) it was 1.04 ± 0.063. For the same compound, in the assay on hAMSC donor 2 [3], the transgenic luciferase activity came out at 1.47 ± 0.045. The transfection efficiency stood at 0.974 ± 0.12 with hAMSC donor 1 [4] (setting [7]); 0.905 ± 0.12 in the assay on hAMSC donor 1 [4] (setting [8]); 0.714 ± 0.21 in the assay on hAMSC donor 1 [4] (setting [9]); 1.01 ± 0.078 with hAMSC donor 2 [5] (setting [7]); 1.27 ± 0.3 in the assay on hAMSC donor 2 [5] (setting [8]); 1.17 ± 0.15 in the assay on hAMSC donor 2 [5] (setting [9]).

For `Oc1ccc2c3c1O[C@H]1c4[nH]c5ccccc5c4C[C@@]4(O)[C@@H](C2)N(CC2CC2)CC[C@]314` [Naltrindole hydrochloride hydrate], the “Hoechst total cell count ratio” value with hAMSC donor 1 [1] (setting [7]) came out at 1.12 ± 0.15; in the assay with hAMSC donor 1 [1] (setting [8]) it was 1.44 ± 0.085; in the assay with hAMSC donor 1 [1] (setting [9]) it was 1.27 ± 0.2; with hAMSC donor 2 [2] (setting [7]) it was 0.847 ± 0.074; with hAMSC donor 2 [2] (setting [8]) it was 1.11 ± 0.1; in the assay on hAMSC donor 2 [2] (setting [9]), 0.898 ± 0.17. In addition, the transgenic luciferase activity with hAMSC donor 2 [3] was 0.494 ± 0.083. The transfection efficiency with hAMSC donor 1 [4] (setting [7]) was found to be 0.879 ± 0.12; with hAMSC donor 1 [4] (setting [8]), 0.885 ± 0.34; in the assay with hAMSC donor 1 [4] (setting [9]), 0.658 ± 0.14; with hAMSC donor 2 [5] (setting [7]), 1.11 ± 0.19; with hAMSC donor 2 [5] (setting [8]), 1.14 ± 0.12; in the assay on hAMSC donor 2 [5] (setting [9]), 0.999 ± 0.081.

In the case of `C[C@]12CC[C@H]3[C@@H](CCC4=CC(=O)CC[C@@H]43)[C@@H]1CC[C@@H]2O` [19-Nortestosterone], the “Hoechst total cell count ratio” value in the assay on hAMSC donor 1 [1] (setting [7]) turned out to be 1.26 ± 0.08; in the assay with hAMSC donor 1 [1] (setting [8]), 1.39 ± 0.18; in the assay on hAMSC donor 1 [1] (setting [9]), 1.05 ± 0.12; with hAMSC donor 2 [2] (setting [7]), 1.11 ± 0.095; in the assay on hAMSC donor 2 [2] (setting [8]), 1.11 ± 0.017; in the assay on hAMSC donor 2 [2] (setting [9]), 1.1 ± 0.12. Further, the transgenic luciferase activity in the assay with hAMSC donor 1 [6] (setting [7]) was found to be 1.03 ± 0.19. Also, the transfection efficiency was found to be 0.812 ± 0.081 with hAMSC donor 1 [4] (setting [7]); 0.799 ± 0.17 with hAMSC donor 1 [4] (setting [8]); 1.29 ± 0.63 in the assay with hAMSC donor 1 [4] (setting [9]); 1.05 ± 0.17 in the assay with hAMSC donor 2 [5] (setting [7]); 0.967 ± 0.13 with hAMSC donor 2 [5] (setting [8]); 0.91 ± 0.28 with hAMSC donor 2 [5] (setting [9]).

For `NC(=O)OCCCc1ccccc1` [Phenprobamate], the “Hoechst total cell count ratio” value in the assay on hAMSC donor 1 [1] (setting [7]) came out at 1.41 ± 0.073; in the assay on hAMSC donor 1 [1] (setting [8]), 1.47 ± 0.13; with hAMSC donor 1 [1] (setting [9]), 1.2 ± 0.078; in the assay with hAMSC donor 2 [2] (setting [7]), 1.13 ± 0.046; in the assay with hAMSC donor 2 [2] (setting [8]), 0.746 ± 0.069; in the assay with hAMSC donor 2 [2] (setting [9]), 0.75 ± 0.093. Further, in the assay with hAMSC donor 1 [6] (setting [9]), the transgenic luciferase activity was 0.868 ± 0.12. In addition, the transfection efficiency in the assay on hAMSC donor 1 [4] (setting [7]) was 1.03 ± 0.25; in the assay with hAMSC donor 1 [4] (setting [8]), 0.773 ± 0.18; in the assay with hAMSC donor 1 [4] (setting [9]), 0.74 ± 0.16; in the assay with hAMSC donor 2 [5] (setting [7]), 0.886 ± 0.095; in the assay with hAMSC donor 2 [5] (setting [8]), 1.47 ± 0.034; with hAMSC donor 2 [5] (setting [9]), 1.17 ± 0.13.

Take `CC(=O)O[C@H]1C[C@@H]2CC[C@@H]3[C@H](CC[C@@]4(C)[C@H]3C[C@H]([N+]3(C)CCCCC3)[C@@H]4OC(C)=O)[C@@]2(C)C[C@@H]1[N+]1(C)CCCCC1` [Pancuronium dibromide]: the “Hoechst total cell count ratio” value in the assay on hAMSC donor 1 [1] (setting [7]) is 1.2 ± 0.018; in the assay with hAMSC donor 1 [1] (setting [8]), 1.24 ± 0.081; in the assay on hAMSC donor 1 [1] (setting [9]) it was 1.37 ± 0.12; with hAMSC donor 2 [2] (setting [7]), 1.17 ± 0.043; in the assay on hAMSC donor 2 [2] (setting [8]), 1.03 ± 0.022; in the assay on hAMSC donor 2 [2] (setting [9]) it was 1.01 ± 0.13. Besides, in the assay on hAMSC donor 2 [3], the transgenic luciferase activity was found to be 0.542 ± 0.038. Also, the transfection efficiency with hAMSC donor 1 [4] (setting [7]) was 0.902 ± 0.19; in the assay on hAMSC donor 1 [4] (setting [8]) it was 0.969 ± 0.15; in the assay with hAMSC donor 1 [4] (setting [9]) it was 1.09 ± 0.41; in the assay with hAMSC donor 2 [5] (setting [7]), 1.1 ± 0.19; in the assay with hAMSC donor 2 [5] (setting [8]) it was 1.3 ± 0.043; in the assay with hAMSC donor 2 [5] (setting [9]) it was 1.29 ± 0.088.
